Our source for the binding values is paper PMC6712044.

Protein sequences, listed by entry. Tags and fused reporters are not part of them.
UniProt Q14145: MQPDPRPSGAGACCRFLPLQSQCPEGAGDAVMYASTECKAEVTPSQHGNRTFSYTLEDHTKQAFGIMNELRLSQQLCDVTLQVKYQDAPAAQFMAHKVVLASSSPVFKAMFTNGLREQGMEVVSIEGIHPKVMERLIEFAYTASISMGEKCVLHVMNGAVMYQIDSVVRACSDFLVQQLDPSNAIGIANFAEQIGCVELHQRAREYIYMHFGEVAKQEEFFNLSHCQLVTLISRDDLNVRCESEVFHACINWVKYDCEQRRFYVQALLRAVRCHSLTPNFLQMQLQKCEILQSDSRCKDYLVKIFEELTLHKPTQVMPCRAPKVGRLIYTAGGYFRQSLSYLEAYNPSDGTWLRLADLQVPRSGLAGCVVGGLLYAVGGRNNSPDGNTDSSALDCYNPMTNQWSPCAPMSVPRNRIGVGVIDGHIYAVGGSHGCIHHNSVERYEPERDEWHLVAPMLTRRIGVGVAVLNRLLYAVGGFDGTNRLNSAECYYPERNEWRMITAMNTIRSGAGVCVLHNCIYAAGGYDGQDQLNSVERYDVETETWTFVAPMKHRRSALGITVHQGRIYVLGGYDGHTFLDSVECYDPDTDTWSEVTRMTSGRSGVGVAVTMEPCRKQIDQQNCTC

No constants are given. Whether binding was seen depends on the method and setting. Binding seen in cells or lysates may run through a third protein. A yes stands for co-enrichment or nearness to the bait. Other partners may have been found.

For the experiment, the target named is endogenous KEAP1 (human (endogenous in H1299)) (UniProt Q14145). In words: affinity purification with mass spectrometry; H1299 lysate (25 mM Tris-HCl, 150 mM NaCl, 1 mM EDTA, 1% NP-40), IP overnight at 4 °C with anti-KEAP1 antibody or normal rabbit IgG, protein G sepharose; gel lanes analysed by mass spectrometry; one round of discovery.

B1: endogenous PIDD (protein, UniProt Q9HB75 1-910)
chain: MAATVEGPELEAAAAAGDASEDSDAGSRALPFLGGNRLSLDLYPGGCQQLLHLCVQQPLQLLQVEFLRLSTHEDPQLLEATLAQLPQSLSCLRSLVLKGGQRRDTLGACLRGALTNLPAGLSGLAHLAHLDLSFNSLETLPACVLQMRGLGALLLSHNCLSELPEALGALPALTFLTVTHNRLQTLPPALGALSTLQRLDLSQNLLDTLPPEIGGLGSLLELNLASNRLQSLPASLAGLRSLRLLVLHSNLLASVPADLARLPLLTRLDLRDNQLRDLPPELLDAPFVRLQGNPLGEASPDAPSSPVAALIPEMPRLFLTSDLDSFPVTPQGCSVTLACGVRLQFPAGATATPITIRYRLLLPEPGLVPLGPHDALLSHVLELQPHGVAFQQDVGLWLLFTPPQARRCREVVVRTRNDNSWGDLETYLEEEAPQRLWAHCQVPHFSWFLVVSRPVSNACLVPPEGTLLCSSGHPGVKVIFPPGATEEPRRVSMQVVRMAGRELQALLGEPEAAVSPLLCLSQSGPPSFLQPVTVQLPLPSGITGLSLDRSRLHLLYWAPPAATWDDITAQVVLELTHLYARFQVTHFSWYWLWYTTKNCVGGLARKAWERLRLHRVNLIALQRRRDPEQVLLQCLPRNKVDATLRRLLERYRGPEPSDTVEMFEGEEFFAAFERGIDVDADRPDCVEGRICFVFYSHLKNVKEVYVTTTLDREAQAVRGQVSFYRGAVPVRVPEEAEAARQRKGADALWMATLPIKLPRLRGSEGPRRGAGLSLAPLNLGDAETGFLTQSNLLSVAGRLGLDWPAVALHLGVSYREVQRIRHEFRDDLDEQIRHMLFSWAERQAGQPGAVGLLVQALEQSDRQDVAEEVRAVLELGRRKYQDSIRRMGLAPKDPALPGSSAPQPPEPAQA
Consider B1, for which the binding result was “binds”.
